Laboratory results: the supplement of paper PMC12889115
The list shows a part of the results. Values are raw readings; no control value is given beside them.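 Primary screen: polymyxin B was added at a level permeabilizing Salmonella outer membranes while sparing inner membranes. DMSO wells, both with and without polymyxin B, established maximum growth. Plate-to-plate variation meant each plate was ranked on its own, and the lowest-OD600 compounds were selected as hits.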

Test system: Salmonella enterica serovar Typhimurium SL1344
Test: bacterial growth OD600 after 18 h with compound and polymyxin B; higher = more bacterial growth (less inhibition)
Conditions: 50 µM, Mueller-Hinton broth

SMILES	bacterial growth OD600 (polymyxin B 1 µg/mL)	bacterial growth OD600 (polymyxin B 0.75 µg/mL)
COc1cccc(NC(=O)CCC2CCN(C(=O)c3cc(C)oc3C)CC2)c1	0.937	–
Cc1oc(-c2ccccc2NS(C)(=O)=O)nc1CN(C)Cc1ccc(CN2CCCCC2)s1	–	0.711
Cc1ccoc1C(=O)NC1CC(=O)N(Cc2ccccc2C(F)(F)F)C1 (stereo not given)	0.976	–
COc1ccc(CNC(C)c2cnn(-c3ccc(F)cc3F)c2C)cc1 (stereo not given)	–	0.827
Cc1ccc2c(c1)CN(Cc1cn(C)nc1C)CC(c1ccsc1)O2 (stereo not given)	–	0.006
COc1cc(CN2CCN(Cc3cc(F)ccc3F)CC2CCO)cc(OC)c1 (stereo not given)	0.826	–
CC(=O)N1CCCC1C(=O)Nc1ccccc1Oc1cccnc1 (stereo not given)	–	0.837
O=C(Cc1ccccc1)Nc1ccnn1C1CCN(C(=O)c2cscn2)CC1	0.939	–
COc1ccc(C(=O)N2CCCC(Nc3ccc(F)cc3)C2)c(OC)c1 (stereo not given)	0.861	–
COc1ccc(/C=C/C(=O)N2CCCC(CO)(Cc3ccc(F)cc3F)C2)cc1 (stereo not given)	0.597	–
Cc1cnc(C)c(N2CCN(C(=O)CC3(c4cccc(F)c4)CC(=O)N(C4CCCC4)C3=O)CC2)n1 (stereo not given)	–	0.742
CCN1CCN(CC2(O)CCCN(CC3CCCCC3)C2=O)CC1 (stereo not given)	0.905	–
CCOC(=O)C1(Cc2ccc(F)cc2F)CCCN(C(=O)CC)C1 (stereo not given)	0.834	–
O=C(NCCN1Cc2ccccc2OC(c2ccsc2)C1)[C@@H]1C[C@H]1c1ccccc1 (stereo not given in full)	–	0.02
O=C(CCOc1ccccc1)Nc1ccnn1C1CCN(Cc2nccs2)CC1	0.93	–
COc1ccc(CNC2CCN(c3ccc(C(=O)N4CCCC(CO)C4)cc3)CC2)cc1OC (stereo not given)	–	0.83
C=CCC(=O)N1CCCCC1C(=O)Nc1cccc(-c2nnc(C)s2)c1 (stereo not given)	0.898	–
CCOC(=O)C1(Cc2ccccc2C)CCCN(C(=O)Cn2nc(C)cc2C)C1 (stereo not given)	0.561	–
CCOc1ccc2nc(CN3CCC(n4nccc4NC(C)=O)CC3)ccc2c1	–	0.713
Cc1nc(CN2CC[C@@H](N3CCN(c4ccccc4F)CC3)[C@H](O)C2)c2ccccn12	0.953	–

Some of these compounds in order of molar mass, ascending.
SMILES	bacterial growth OD600 (polymyxin B 1 µg/mL)	bacterial growth OD600 (polymyxin B 0.75 µg/mL)
Cc1ccoc1C(=O)NC1CC(=O)N(Cc2ccccc2C(F)(F)F)C1 (stereo not given)	0.976	–
C=CCC(=O)N1CCCCC1C(=O)Nc1cccc(-c2nnc(C)s2)c1 (stereo not given)	0.898	–
COc1cc(CN2CCN(Cc3cc(F)ccc3F)CC2CCO)cc(OC)c1 (stereo not given)	0.826	–
O=C(NCCN1Cc2ccccc2OC(c2ccsc2)C1)[C@@H]1C[C@H]1c1ccccc1 (stereo not given in full)	–	0.02
Cc1nc(CN2CC[C@@H](N3CCN(c4ccccc4F)CC3)[C@H](O)C2)c2ccccn12	0.953	–
